The text below walks through data of paper PMC12176620, “Structure of the ATP-driven methyl-coenzyme M reductase activation complex” (Nature, 2025).

Test in all cases: cryo-EM structure; single-particle analysis of the Strep-Tactin-purified MCR activation complex (1.2 mg/ml), vitrified anaerobically 'as isolated' (maps with A2 at 2.5 Å and without A2 at 2.7 Å) and after 30 min with 5 mM ATP and the CH4 reaction components except Ti(III) citrate (2.1 Å, locally 1.8 Å); both purified
The target in assay [1] is T1, Twin-Strep McrC (Methanococcus maripaludis (endogenous in M. maripaludis JJ Δupt)) (UniProt Q6LWZ7).
T1 sequence: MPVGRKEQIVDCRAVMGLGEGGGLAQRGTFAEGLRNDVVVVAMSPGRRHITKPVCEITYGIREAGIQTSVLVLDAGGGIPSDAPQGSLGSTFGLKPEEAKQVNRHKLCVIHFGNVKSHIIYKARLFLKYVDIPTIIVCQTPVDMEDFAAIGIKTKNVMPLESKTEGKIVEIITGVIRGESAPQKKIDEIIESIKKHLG

In assay [2] the target is T2, McrB (Methanococcus maripaludis (endogenous in M. maripaludis JJ Δupt)) (UniProt Q6LWZ9).
T2 sequence: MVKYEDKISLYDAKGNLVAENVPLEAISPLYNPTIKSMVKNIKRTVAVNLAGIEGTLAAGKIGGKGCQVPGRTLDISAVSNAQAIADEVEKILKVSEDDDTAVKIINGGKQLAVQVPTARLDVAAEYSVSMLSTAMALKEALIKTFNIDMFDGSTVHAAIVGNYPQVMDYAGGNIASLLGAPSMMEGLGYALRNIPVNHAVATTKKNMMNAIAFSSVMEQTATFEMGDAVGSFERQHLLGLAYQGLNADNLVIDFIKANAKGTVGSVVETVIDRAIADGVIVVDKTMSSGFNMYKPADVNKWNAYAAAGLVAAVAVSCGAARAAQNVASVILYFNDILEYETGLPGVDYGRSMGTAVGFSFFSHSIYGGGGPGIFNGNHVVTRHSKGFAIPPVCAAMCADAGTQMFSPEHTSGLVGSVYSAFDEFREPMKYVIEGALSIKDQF

Assay [3] addresses methanogenic marker protein Mmp7 (Methanococcus maripaludis (endogenous in M. maripaludis JJ Δupt)).
Assay [4] addresses methanogenic marker protein Mmp17 (Methanococcus maripaludis (endogenous in M. maripaludis JJ Δupt)).
The target in assay [5] is methanogenic marker protein Mmp3 (Methanococcus maripaludis (endogenous in M. maripaludis JJ Δupt)).
Assay [6] has as its target McrG (Methanococcus maripaludis (endogenous in M. maripaludis JJ Δupt)).

These are yes or no findings as the source states them, for the method shown. For some of these results: Binding calls can cover weak binding; strength is not graded here.

For methanogenic marker protein Mmp7, the binding entry in assay [1] was “binds”.

Turning to McrG, the binding entry in assay [2] and in assay [1] was “binds” in each case.

B1: A2 component (protein, UniProt Q6LZK7 1-531)
chain: MLLLEVKNVSKSYGDTEVLKNVSFELNEGDVMGVLGRSGAGKSVLLHMLRGMEGYEPTSGQIIYHVAYCPHCENVEAPSQVGKKCECETEYVAKSVDFWNNNEITYALKKKIAIMLQRTFALYGEKTVAENIMEALTAAGYEGKDATEWALNLIKMVKLEHRVAHISRDLSGGEKQRVVLARQIAKNPVIFLADEPTGTLDPKTAKFVHNALTEAVIKHNIAMVITSHWPEVIEELCQKAIWLDKGEMRLVGESKHVVEEFMKTVTSMKEFEKVEVKDELLKLENVEKRYVSVDRGIVKAVDGIDVSINEKEIFGLVGVSGAGKTTLSKIIAAVIPPSKGNYEFRLADEWVDMTKVGPLYRGRAKRYIGMLFQEYSLYPHRTILYNLTESIGLEMPGEFAKMKAEHTLVSVGFTEEEAENMLEKHPSELSVGEKHRVALAQVLIREPHLILLDEPTGTMDPITRNQVAESIQKSRSELDQTYVIVSHDMDFVLNVCDRAALVRGGKIIKTGKPDEIVKILSEEEKDEMIGH
As for B1, the binding entry in assay [3] was “no binding”; in assay [4], “no binding”; in assay [5], “no binding”; in assay [6] it was “binds”.
